Test results published in the supplement of paper PMC10849652.
This is one part of the list.

The chains behind the UniProt entries cited, without tags or fusion partners. Where a name states a change or a piece, a line headed by the entry shows the natural chain unless it says otherwise.
UniProt Q9NY93: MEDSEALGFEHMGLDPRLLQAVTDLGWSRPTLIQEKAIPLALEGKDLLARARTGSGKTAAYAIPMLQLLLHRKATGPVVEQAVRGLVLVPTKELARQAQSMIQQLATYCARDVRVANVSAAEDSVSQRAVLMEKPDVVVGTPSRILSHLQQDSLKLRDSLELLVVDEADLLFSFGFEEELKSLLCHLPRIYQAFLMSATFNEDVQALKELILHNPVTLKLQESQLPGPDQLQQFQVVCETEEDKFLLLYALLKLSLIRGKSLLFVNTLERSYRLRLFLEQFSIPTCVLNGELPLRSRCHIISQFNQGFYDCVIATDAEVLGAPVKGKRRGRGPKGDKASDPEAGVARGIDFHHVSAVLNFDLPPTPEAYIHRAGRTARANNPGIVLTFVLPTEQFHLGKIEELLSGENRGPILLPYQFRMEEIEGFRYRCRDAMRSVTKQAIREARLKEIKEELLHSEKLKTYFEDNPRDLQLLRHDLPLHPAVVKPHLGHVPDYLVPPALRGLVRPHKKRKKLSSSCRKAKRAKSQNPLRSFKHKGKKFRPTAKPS
UniProt Q5TAQ9: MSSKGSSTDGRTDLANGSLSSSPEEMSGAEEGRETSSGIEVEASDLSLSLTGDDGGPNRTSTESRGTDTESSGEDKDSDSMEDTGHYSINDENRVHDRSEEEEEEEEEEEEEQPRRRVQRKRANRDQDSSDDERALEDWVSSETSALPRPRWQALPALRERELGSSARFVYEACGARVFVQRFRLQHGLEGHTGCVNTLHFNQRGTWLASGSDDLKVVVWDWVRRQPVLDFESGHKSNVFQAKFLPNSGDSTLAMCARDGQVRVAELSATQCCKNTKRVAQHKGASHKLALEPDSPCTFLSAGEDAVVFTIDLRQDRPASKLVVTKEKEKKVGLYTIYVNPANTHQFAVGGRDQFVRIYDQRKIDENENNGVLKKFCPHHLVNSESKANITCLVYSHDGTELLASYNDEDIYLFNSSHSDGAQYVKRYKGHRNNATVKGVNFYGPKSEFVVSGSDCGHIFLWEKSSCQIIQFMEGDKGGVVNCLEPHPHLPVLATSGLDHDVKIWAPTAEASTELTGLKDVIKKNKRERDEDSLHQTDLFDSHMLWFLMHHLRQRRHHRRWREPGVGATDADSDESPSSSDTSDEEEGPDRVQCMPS
UniProt Q8NHQ9: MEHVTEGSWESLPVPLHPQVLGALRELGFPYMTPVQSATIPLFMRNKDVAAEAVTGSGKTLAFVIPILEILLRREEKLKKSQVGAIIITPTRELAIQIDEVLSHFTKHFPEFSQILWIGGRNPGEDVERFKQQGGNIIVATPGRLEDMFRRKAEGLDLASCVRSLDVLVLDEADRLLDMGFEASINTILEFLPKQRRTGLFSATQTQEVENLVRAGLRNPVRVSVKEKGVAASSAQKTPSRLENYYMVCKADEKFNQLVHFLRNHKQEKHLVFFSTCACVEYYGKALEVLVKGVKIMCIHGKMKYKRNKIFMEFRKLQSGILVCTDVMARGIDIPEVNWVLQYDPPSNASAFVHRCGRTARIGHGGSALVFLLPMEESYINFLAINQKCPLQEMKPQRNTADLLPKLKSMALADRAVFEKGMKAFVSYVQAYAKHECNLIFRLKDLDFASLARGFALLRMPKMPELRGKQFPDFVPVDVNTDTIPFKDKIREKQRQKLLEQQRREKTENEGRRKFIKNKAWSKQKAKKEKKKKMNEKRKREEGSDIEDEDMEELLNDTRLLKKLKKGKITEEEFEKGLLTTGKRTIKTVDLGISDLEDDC
UniProt Q5T1V6: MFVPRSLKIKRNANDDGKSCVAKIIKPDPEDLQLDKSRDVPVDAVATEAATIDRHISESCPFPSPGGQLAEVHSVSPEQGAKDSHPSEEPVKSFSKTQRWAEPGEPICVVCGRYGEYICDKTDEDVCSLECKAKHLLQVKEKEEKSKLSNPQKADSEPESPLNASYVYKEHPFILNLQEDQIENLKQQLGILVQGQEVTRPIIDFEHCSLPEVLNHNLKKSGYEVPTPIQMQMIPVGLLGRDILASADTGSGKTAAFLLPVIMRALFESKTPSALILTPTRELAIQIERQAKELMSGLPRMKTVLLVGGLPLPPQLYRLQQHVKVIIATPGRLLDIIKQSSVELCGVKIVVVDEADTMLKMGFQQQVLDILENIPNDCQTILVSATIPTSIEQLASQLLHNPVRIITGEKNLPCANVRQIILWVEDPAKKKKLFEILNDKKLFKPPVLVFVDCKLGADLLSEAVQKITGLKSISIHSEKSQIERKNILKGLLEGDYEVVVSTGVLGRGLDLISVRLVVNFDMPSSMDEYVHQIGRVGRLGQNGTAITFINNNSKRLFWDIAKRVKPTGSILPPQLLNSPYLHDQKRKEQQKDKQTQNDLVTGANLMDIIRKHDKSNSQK
UniProt Q07973: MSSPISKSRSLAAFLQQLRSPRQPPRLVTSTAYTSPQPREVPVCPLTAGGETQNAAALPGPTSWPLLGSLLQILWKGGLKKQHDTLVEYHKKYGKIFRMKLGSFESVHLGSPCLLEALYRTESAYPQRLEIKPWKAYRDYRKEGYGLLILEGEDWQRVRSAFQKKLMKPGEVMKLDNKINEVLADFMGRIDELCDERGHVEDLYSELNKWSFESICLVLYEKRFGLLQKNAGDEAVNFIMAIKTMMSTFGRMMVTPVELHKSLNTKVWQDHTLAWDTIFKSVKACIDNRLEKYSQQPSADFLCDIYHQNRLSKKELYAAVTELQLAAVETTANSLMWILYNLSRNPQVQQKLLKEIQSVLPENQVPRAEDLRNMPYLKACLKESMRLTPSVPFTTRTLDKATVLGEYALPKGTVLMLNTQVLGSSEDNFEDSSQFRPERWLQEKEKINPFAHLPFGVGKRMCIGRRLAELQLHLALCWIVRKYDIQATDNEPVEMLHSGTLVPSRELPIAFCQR
UniProt Q9H4E7, whole entry, looked up: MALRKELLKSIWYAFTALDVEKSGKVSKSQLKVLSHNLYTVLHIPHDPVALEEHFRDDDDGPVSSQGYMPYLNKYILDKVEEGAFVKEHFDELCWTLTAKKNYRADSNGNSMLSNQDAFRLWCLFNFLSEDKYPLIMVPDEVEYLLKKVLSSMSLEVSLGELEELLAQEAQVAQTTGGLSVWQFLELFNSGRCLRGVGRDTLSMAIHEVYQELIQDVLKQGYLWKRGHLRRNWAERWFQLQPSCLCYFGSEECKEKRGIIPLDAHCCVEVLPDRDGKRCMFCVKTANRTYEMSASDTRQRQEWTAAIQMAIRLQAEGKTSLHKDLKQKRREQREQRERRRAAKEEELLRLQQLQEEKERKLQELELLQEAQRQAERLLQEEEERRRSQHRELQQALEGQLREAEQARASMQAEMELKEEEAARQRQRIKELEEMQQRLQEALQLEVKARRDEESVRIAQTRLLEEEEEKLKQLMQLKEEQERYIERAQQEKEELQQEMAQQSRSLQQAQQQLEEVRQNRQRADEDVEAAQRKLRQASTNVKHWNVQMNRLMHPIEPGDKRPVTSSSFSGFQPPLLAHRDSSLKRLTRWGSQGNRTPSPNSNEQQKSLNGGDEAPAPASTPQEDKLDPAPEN
UniProt Q9UK59: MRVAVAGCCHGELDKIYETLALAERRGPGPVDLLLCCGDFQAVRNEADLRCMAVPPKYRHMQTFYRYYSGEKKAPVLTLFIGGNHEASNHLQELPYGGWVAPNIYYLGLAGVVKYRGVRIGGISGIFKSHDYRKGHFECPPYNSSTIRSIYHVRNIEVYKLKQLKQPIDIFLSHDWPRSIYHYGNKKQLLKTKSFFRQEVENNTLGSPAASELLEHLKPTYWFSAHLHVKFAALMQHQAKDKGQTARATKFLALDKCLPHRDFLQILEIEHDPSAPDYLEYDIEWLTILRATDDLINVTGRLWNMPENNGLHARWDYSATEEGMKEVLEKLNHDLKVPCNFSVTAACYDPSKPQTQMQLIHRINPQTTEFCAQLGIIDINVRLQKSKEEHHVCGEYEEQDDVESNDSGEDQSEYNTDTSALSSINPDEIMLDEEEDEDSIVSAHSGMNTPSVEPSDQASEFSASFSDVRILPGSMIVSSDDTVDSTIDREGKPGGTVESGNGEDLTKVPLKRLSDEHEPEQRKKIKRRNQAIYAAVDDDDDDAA
UniProt Q9NVP1: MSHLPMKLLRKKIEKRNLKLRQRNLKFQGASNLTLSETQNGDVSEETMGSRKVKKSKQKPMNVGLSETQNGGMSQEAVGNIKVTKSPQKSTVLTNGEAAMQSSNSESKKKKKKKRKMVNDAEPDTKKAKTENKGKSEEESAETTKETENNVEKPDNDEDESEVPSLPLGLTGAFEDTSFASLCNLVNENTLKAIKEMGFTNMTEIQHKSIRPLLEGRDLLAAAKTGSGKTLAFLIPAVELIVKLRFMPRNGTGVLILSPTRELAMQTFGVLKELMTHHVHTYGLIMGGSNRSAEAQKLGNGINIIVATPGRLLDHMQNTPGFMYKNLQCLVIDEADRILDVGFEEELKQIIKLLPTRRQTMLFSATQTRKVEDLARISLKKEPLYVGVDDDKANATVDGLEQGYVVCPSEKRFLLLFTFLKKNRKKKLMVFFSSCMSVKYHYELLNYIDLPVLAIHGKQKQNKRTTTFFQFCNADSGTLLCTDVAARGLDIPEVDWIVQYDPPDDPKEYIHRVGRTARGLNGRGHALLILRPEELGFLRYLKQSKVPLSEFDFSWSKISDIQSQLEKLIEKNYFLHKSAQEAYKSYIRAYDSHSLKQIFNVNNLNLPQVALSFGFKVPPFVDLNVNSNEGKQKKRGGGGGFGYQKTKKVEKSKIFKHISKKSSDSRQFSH

Key:
Assay in all cases: log2 fold change, soluble protein after heating vs DMSO (PISA); higher = thermal stabilisation; K562 lysate, 10 uM; active = over 0.2 and 3.5 SD of the protein, either way, in both replicates (recomputed)
[1] = compound: CN1CC[C@H](c2c(O)cc(O)c3c(=O)cc(-c4ccccc4Cl)oc23)[C@H](O)C1 [alvocidib]
Outline: (§1)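 Values give the log-two fold change in thermal stability against solvent controls, from duplicates. Crude K562 extract at 1 mg/mL protein, made by dounce homogenisation in PBS pH 7.4 with 1 mM MgCl2, was treated with 10 μM compound for 30 min. After 3 min heating across 48°C-58°C, aliquots were pooled, adjusted to 0.5% NP-40 at 4°C and centrifuged at 21,000xg for 90 min. The supernatant was measured by TMTpro 16plex LC-MS/MS with channel sums equalised.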

[2] = compound: CN1CCc2c(c3ccccc3n2Cc2ccc(C(=O)NO)cc2)C1 [Tubastatin A]
Outline: as §1

[3] = compound: CNC(=O)C1=CC=CC=C1NC2=NC(=NC=C2Cl)NC3=C(C=C(C=C3)N4CCOCC4)OC
Outline: as §1

[4] = compound: CNC(=O)c1ccc(Nc2ncc(C(F)(F)F)c(NCc3nccnc3N(C)S(C)(=O)=O)n2)cc1 [defactinib]
Outline: as §1

[5] = compound: CNc1nc(-c2ccc3c(N)n[nH]c3c2)cc(N2C[C@@H](C(=O)NC3CCCCC3)CC[C@H]2C)n1
Outline: as §1

[6] = compound: COC(=O)N[C@@H](C)CNc1nccc(-c2cn(C(C)C)nc2-c2cc(Cl)cc(NS(C)(=O)=O)c2F)n1 [encorafenib]
Outline: as §1

[7] = compound: COC(=O)[C@H](CCSC)NC(=O)C1=C(C=C(C=C1)NC[C@H](CS)N)C2=CC=CC=C2
Outline: as §1

[8] = compound: COc1cc(Nc2ncc3c(n2)-c2ccc(Cl)cc2C(c2c(F)cccc2OC)=NC3)ccc1C(=O)O [alisertib]
Outline: as §1

[9] = compound: COc1cc2nc(-c3cc(F)ccc3O)nc(N[C@@H]3CNC[C@H]3C(C)(C)O)c2cc1OC
Outline: as §1

[10] = compound: COc1cc2ncnc(Nc3ccc(F)c(Cl)c3)c2cc1OCCCN1CCOCC1 [gefitinib]
Outline: as §1

[11] = compound: CS(=O)(=O)CCNCc1ccc(-c2ccc3ncnc(Nc4ccc(OCc5cccc(F)c5)c(Cl)c4)c3c2)o1 [lapatinib]
Outline: as §1

[12] = compound: CS(=O)(=O)N1CCN(Cc2cc3nc(-c4cccc5[nH]ncc45)nc(N4CCOCC4)c3s2)CC1 [pictilisib]
Outline: as §1

[13] = compound: C[C@@H](Oc1cc(-c2cnn(C3CCNCC3)c2)cnc1N)c1c(Cl)ccc(F)c1Cl [crizotinib]
Outline: as §1

[14] = compound: C[C@H](C1=CC=C(C=C1)C(=O)NC2=C3C=CNC3=NC=C2)N
Outline: as §1

[15] = compound: C[C@H](Nc1ncnc2nc[nH]c12)c1cc2cccc(Cl)c2c(=O)n1-c1ccccc1 [duvelisib]
Outline: as §1

[16] = compound: Cc1cc(Nc2cc(CN3CCOCC3)c3nc(C)c(Cc4ccc(Cl)cc4F)n3n2)n[nH]1 [gandotinib]
Outline: as §1

[17] = compound: Cc1cc(Nc2cc(N3CCN(C)CC3)nc(Sc3ccc(NC(=O)C4CC4)cc3)n2)n[nH]1 [tozasertib]
Outline: as §1

[18] = compound: Cc1ccc(-n2nc(C(C)(C)C)cc2NC(=O)Nc2ccc(OCCN3CCOCC3)c3ccccc23)cc1 [doramapimod]
Outline: as §1

[19] = compound: Cc1ccc(NC(=O)c2ccc(CN3CC[C@H](N(C)C)C3)c(C(F)(F)F)c2)cc1Nc1nccc(-c2cncnc2)n1 [bafetinib]
Outline: as §1

[20] = compound: Cc1cccc(CC(=O)N2CCc3c2ccc(-c2cn(C)c4ncnc(N)c24)c3F)n1
Outline: as §1

DDX56 (UniProt Q9NY93)
log2 fold change [1]: inactive: 0.075 | log2 fold change [2]: inactive: -0.058 | log2 fold change [3]: inactive: 0.043 | log2 fold change [4]: inactive: 0.051 | log2 fold change [5]: inactive: 0.061 | log2 fold change [6]: inactive: 0.048 | log2 fold change [7]: inactive: 0.019 | log2 fold change [8]: inactive: 0.01 | log2 fold change [9]: inactive: 0.004 | log2 fold change [10]: inactive: -0.025 | log2 fold change [11]: inactive: -0.035 | log2 fold change [12]: inactive: 0.006 | log2 fold change [13]: inactive: -0.024 | log2 fold change [14]: inactive: -0.094 | log2 fold change [15]: inactive: -0.006 | log2 fold change [16]: inactive: -0.124 | log2 fold change [17]: inactive: -0.061 | log2 fold change [18]: inactive: 0.024 | log2 fold change [19]: inactive: -0.037 | log2 fold change [20]: inactive: 0.021

DCAF8 (UniProt Q5TAQ9)
log2 fold change [1]: inactive: -0.013 | log2 fold change [2]: inactive: 0.037 | log2 fold change [3]: inactive: -0.03 | log2 fold change [4]: inactive: -0.02 | log2 fold change [5]: inactive: 0.027 | log2 fold change [6]: inactive: -0.015 | log2 fold change [7]: inactive: 0.058 | log2 fold change [8]: inactive: 0.067 | log2 fold change [9]: inactive: -0.012 | log2 fold change [10]: inactive: 0.064 | log2 fold change [11]: inactive: 0.01 | log2 fold change [12]: inactive: -0.014 | log2 fold change [13]: inactive: -0.043 | log2 fold change [14]: inactive: -0.032 | log2 fold change [15]: inactive: 0.003 | log2 fold change [16]: inactive: 0.058 | log2 fold change [17]: inactive: 0.006 | log2 fold change [18]: inactive: 0.032 | log2 fold change [19]: inactive: 0.001 | log2 fold change [20]: inactive: 0.054

DDX55 (UniProt Q8NHQ9)
log2 fold change [1]: inactive: -0.079 | log2 fold change [2]: inactive: 0.012 | log2 fold change [3]: inactive: 0.021 | log2 fold change [4]: inactive: 0.028 | log2 fold change [5]: inactive: -0.013 | log2 fold change [6]: inactive: 0.036 | log2 fold change [7]: inactive: 0.057 | log2 fold change [8]: inactive: -0.012 | log2 fold change [9]: inactive: -0.014 | log2 fold change [10]: inactive: -0.003 | log2 fold change [11]: inactive: -0.007 | log2 fold change [12]: inactive: 0.048 | log2 fold change [13]: inactive: -0.023 | log2 fold change [14]: inactive: -0.062 | log2 fold change [15]: inactive: 0.029 | log2 fold change [16]: inactive: -0.064 | log2 fold change [17]: inactive: -0.002 | log2 fold change [18]: inactive: 0.018 | log2 fold change [19]: inactive: -0.004 | log2 fold change [20]: inactive: 0.112

DDX59 (UniProt Q5T1V6)
log2 fold change [1]: inactive: 0.016 | log2 fold change [2]: inactive: 0.023 | log2 fold change [3]: inactive: 0.039 | log2 fold change [4]: inactive: 0.052 | log2 fold change [5]: inactive: -0.015 | log2 fold change [6]: inactive: -0.012 | log2 fold change [7]: inactive: 0 | log2 fold change [8]: inactive: 0.048 | log2 fold change [9]: inactive: 0.02 | log2 fold change [10]: inactive: 0.002 | log2 fold change [11]: inactive: -0.005 | log2 fold change [12]: inactive: -0.009 | log2 fold change [13]: inactive: 0.004 | log2 fold change [14]: inactive: -0.045 | log2 fold change [15]: inactive: -0.028 | log2 fold change [16]: inactive: -0.005 | log2 fold change [17]: inactive: 0.026 | log2 fold change [18]: inactive: 0.049 | log2 fold change [19]: inactive: 0.029 | log2 fold change [20]: inactive: 0.024

CYP24A1 (UniProt Q07973)
log2 fold change [1]: inactive: -0.258 | log2 fold change [2]: inactive: 0.163 | log2 fold change [3]: inactive: -0.021 | log2 fold change [4]: inactive: -0.158 | log2 fold change [5]: inactive: 0.226 | log2 fold change [6]: inactive: 0.011 | log2 fold change [7]: inactive: 0.043 | log2 fold change [8]: inactive: 0.049 | log2 fold change [9]: inactive: 0.13 | log2 fold change [10]: inactive: -0.05 | log2 fold change [11]: inactive: -0.099 | log2 fold change [12]: inactive: 0.015 | log2 fold change [13]: inactive: -0.289 | log2 fold change [14]: active: -0.462 | log2 fold change [15]: inactive: 0.077 | log2 fold change [16]: inactive: 0.235 | log2 fold change [17]: inactive: -0.02 | log2 fold change [18]: inactive: 0.006 | log2 fold change [19]: inactive: -0.209 | log2 fold change [20]: inactive: 0.325

DEF6 (UniProt Q9H4E7)
log2 fold change [1]: inactive: -0.036 | log2 fold change [2]: inactive: -0.154 | log2 fold change [3]: inactive: 0.027 | log2 fold change [4]: inactive: -0.07 | log2 fold change [5]: inactive: 0.039 | log2 fold change [6]: inactive: 0.019 | log2 fold change [7]: inactive: -0.002 | log2 fold change [8]: inactive: 0.097 | log2 fold change [9]: inactive: 0.013 | log2 fold change [10]: inactive: -0.01 | log2 fold change [11]: inactive: -0.021 | log2 fold change [12]: inactive: 0.057 | log2 fold change [13]: inactive: -0.095 | log2 fold change [14]: inactive: -0.049 | log2 fold change [15]: inactive: 0.013 | log2 fold change [16]: inactive: 0.032 | log2 fold change [17]: inactive: 0.009 | log2 fold change [18]: inactive: 0 | log2 fold change [19]: inactive: 0.151 | log2 fold change [20]: inactive: 0.188

DBR1 (UniProt Q9UK59)
log2 fold change [1]: inactive: -0.071 | log2 fold change [2]: inactive: 0.021 | log2 fold change [3]: inactive: 0.002 | log2 fold change [4]: inactive: -0.001 | log2 fold change [5]: inactive: 0.055 | log2 fold change [6]: inactive: 0.046 | log2 fold change [7]: inactive: 0.008 | log2 fold change [8]: inactive: -0.02 | log2 fold change [9]: inactive: 0.001 | log2 fold change [10]: inactive: 0.026 | log2 fold change [11]: inactive: -0.028 | log2 fold change [12]: inactive: 0.005 | log2 fold change [13]: inactive: 0.013 | log2 fold change [14]: inactive: -0.184 | log2 fold change [15]: inactive: 0.005 | log2 fold change [16]: inactive: 0.059 | log2 fold change [17]: inactive: 0.004 | log2 fold change [18]: inactive: 0.04 | log2 fold change [19]: inactive: -0.039 | log2 fold change [20]: inactive: 0.07

DDX18 (UniProt Q9NVP1)
log2 fold change [1]: inactive: -0.016 | log2 fold change [2]: inactive: -0.047 | log2 fold change [3]: inactive: 0.009 | log2 fold change [4]: inactive: 0.027 | log2 fold change [5]: inactive: 0.024 | log2 fold change [6]: inactive: 0.043 | log2 fold change [7]: inactive: 0.028 | log2 fold change [8]: inactive: -0.001 | log2 fold change [9]: inactive: -0.004 | log2 fold change [10]: inactive: -0.014 | log2 fold change [11]: inactive: 0.017 | log2 fold change [12]: inactive: 0.006 | log2 fold change [13]: inactive: -0.03 | log2 fold change [14]: inactive: -0.024 | log2 fold change [15]: inactive: 0.006 | log2 fold change [16]: inactive: -0.031 | log2 fold change [17]: inactive: -0.035 | log2 fold change [18]: inactive: -0.021 | log2 fold change [19]: inactive: -0.024 | log2 fold change [20]: inactive: 0.05
